This note sets out measurements from PubChem BioAssay AID192 (DTP/NCI, 2004).

The list does not hold the whole screen: it is rich in T/C values a quarter to a half above the control, in often repeated tests (any T/C) and in doses without a T/C. Further doses and runs are listed elsewhere. T/C: endpoint of the treated group in % of that of the vehicle group. Some entries give survivors of the animals treated and no T/C: the source files T/C as zero there, which appears to mark a toxic dose or a test without result, not a measured value. Some survivor counts are full or nearly so, which does not show that the dose was tolerated: survival well below the control is almost never listed, so the zero probably covers shortened survival too. Survivors were counted at the toxicity check, usually on the fifth day, unless a day is given; later deaths do not show. Schedule codes are those of the source, taken here to give the interval after Q, in days (D) or hours (H), and the number of doses after X. Counts like (3×) say how often a value occurs here. Some molecules as drawn cover several salts, stereoisomers or complexes of the source; a dose is that of the sample tested. For survival time, this PubChem deposit counts one and a half times the control or more as active, and values a quarter to a half above the control carry no call in these data; other NCI protocols may use other cut-offs. Some entries were tested several times; the values are given in rising order. Square brackets hold non-standard residues; d marks the D form. Peptide text beside a SMILES is read from it. * marks the point of attachment. Nle = CCCC[CH](N)C(=O)O; Cbz = O=C(OCc1ccccc1)*

The subject of this test is BDF1 mice, B16 melanoma ip, median survival T/C. The test is described as follows: NCI In Vivo Anticancer Drug Screen. Data for tumor model B16 Melanoma (intraperitoneal) in B6D2F1 (BDF1) mice. As to conditions: T/C endpoint: median survival time, higher T/C = longer survival. An outline of the steps:
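Antitumor activity is assessed in mice bearing a transplanted tumor, with survival or tumor size compared against vehicle-dosed controls and expressed as T/C.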

[1] abbreviates: dose: 6.25 mg/kg/injection, schedule: Q01DX009 (ip), vehicle: saline.
Setting [2] is: dose: 25.0 mg/kg/injection, schedule: Q01DX009 (ip), vehicle: saline.

As for `CCOc1ccc(N2C(=O)CSC2=S)cc1`, the survivor count is, setting by setting: (dose: 100.0 mg/kg/injection, schedule: Q01DX009 (ip), vehicle: Klucel (hydroxypropylcellulose) (HPC)) 10 of 10; (dose: 200.0 mg/kg/injection, schedule: Q01DX009 (ip), vehicle: Klucel (hydroxypropylcellulose) (HPC)) 10 of 10; (dose: 400.0 mg/kg/injection, schedule: Q01DX009 (ip), vehicle: Klucel (hydroxypropylcellulose) (HPC)) 10 of 10.
Regarding `CC1=CCC(C(C)(C)c2ccc(O)cc2)CC1` (stereo not drawn), the survivor count (dose: 50.0 mg/kg/injection, schedule: Q01DX009 (ip), vehicle: saline with Tween-80) is 10 of 10 and the survivor count (dose: 100.0 mg/kg/injection, schedule: Q01DX009 (ip), vehicle: saline with Tween-80) was 10 of 10.
For `c1ccc(CN2CCOC2)cc1`, the survivor count is 7 of 10 (dose: 200.0 mg/kg/injection, schedule: Q01DX009 (ip), vehicle: saline) and 0 of 10 (dose: 400.0 mg/kg/injection, schedule: Q01DX009 (ip), vehicle: saline).
For `COc1cc(NS(C)(=O)=O)ccc1Nc1c2ccccc2nc2c(C)cccc12`, the T/C runs as follows: (dose: 1.25 mg/kg/injection, schedule: Q01DX009 (ip), vehicle: other) 143 % of control; (dose: 2.5 mg/kg/injection, schedule: Q01DX009 (ip), vehicle: saline with Tween-80) 132 and 147 % of control; (dose: 5.0 mg/kg/injection, schedule: Q01DX009 (ip), vehicle: saline with Tween-80) 147 % of control; (dose: 5.0 mg/kg/injection, schedule: Q04DX003 (ip), vehicle: other) 128 % of control; (dose: 30.0 mg/kg/injection, schedule: Q01DX001 (ip), vehicle: saline sonified) 133 % of control. The survivor count was 10 of 10 (dose: 8.0 mg/kg/injection, schedule: Q01DX009 (ip), vehicle: saline); 10 of 10 (dose: 10.0 mg/kg/injection, schedule: Q01DX009 (ip), vehicle: other); 6 of 6 (2×) (dose: 10.0 mg/kg/injection, schedule: Q01DX009 (ip), vehicle: saline with Tween-80); 10 of 10 (dose: 10.0 mg/kg/injection, schedule: Q04DX003 (ip), vehicle: other); 10 of 10 (dose: 17.0 mg/kg/injection, schedule: Q01DX009 (ip), vehicle: Klucel (hydroxypropylcellulose) (HPC)); 9 of 10 (dose: 20.0 mg/kg/injection, schedule: Q01DX009 (ip), vehicle: other). Besides, the survivor count was 6 of 6 (2×) (dose: 20.0 mg/kg/injection, schedule: Q01DX009 (ip), vehicle: saline with Tween-80); 10 of 10 (dose: 20.0 mg/kg/injection, schedule: Q04DX003 (ip), vehicle: other); 9 of 10 (dose: 25.0 mg/kg/injection, schedule: Q01DX009 (ip), vehicle: Klucel (hydroxypropylcellulose) (HPC)); 9 of 10 (dose: 37.0 mg/kg/injection, schedule: Q01DX009 (ip), vehicle: Klucel (hydroxypropylcellulose) (HPC)); 7 of 10 (dose: 40.0 mg/kg/injection, schedule: Q04DX003 (ip), vehicle: other); 9 of 10 (dose: 50.0 mg/kg/injection, schedule: Q04DX003 (ip), vehicle: Klucel (hydroxypropylcellulose) (HPC)). For the same compound, the survivor count (dose: 100.0 mg/kg/injection, schedule: Q04DX003 (ip), vehicle: gum acacia) is 8 of 10; the survivor count (dose: 200.0 mg/kg/injection, schedule: Q04DX003 (ip), vehicle: gum acacia) is 6 of 10; the survivor count (dose: 400.0 mg/kg/injection, schedule: Q04DX003 (ip), vehicle: gum acacia) is reported as 0 of 10.
For `CCCCC(NC(=O)C(Cc1ccccc1)NC(=O)OCc1ccccc1)C(=O)O` (stereo not drawn) (Cbz-Phe-[Nle]-OH; configuration not given here), the survivor count is, setting by setting: (dose: 200.0 mg/kg/injection, schedule: Q01DX009 (ip), vehicle: saline with Tween-80) 10 of 10; (dose: 400.0 mg/kg/injection, schedule: Q01DX009 (ip), vehicle: saline with Tween-80) 10 of 10.
Consider `Cc1ccc([I+]c2ccc(C)cc2C)c(C)c1`, for which the survivor count is, setting by setting: (dose: 3.0 mg/kg/injection, schedule: Q01DX009 (ip), vehicle: Klucel (hydroxypropylcellulose) (HPC)) 10 of 10; (dose: 12.0 mg/kg/injection, schedule: Q01DX009 (ip), vehicle: Klucel (hydroxypropylcellulose) (HPC)) 10 of 10.
As for `Cc1ccc(CS)cc1`, the T/C (dose: 50.0 mg/kg/injection, schedule: Q01DX009 (ip), vehicle: Klucel (hydroxypropylcellulose) (HPC)) is 125 % of control.
With `O=S(=O)(NC(=S)S)c1ccccc1`, the survivor count by setting is: (dose: 100.0 mg/kg/injection, schedule: Q01DX009 (ip), vehicle: water) 4 of 10; (dose: 200.0 mg/kg/injection, schedule: Q01DX009 (ip), vehicle: water) 2 of 10; (dose: 400.0 mg/kg/injection, schedule: Q01DX009 (ip), vehicle: water) 0 of 10.
`CN(N=O)C(N)=O`: the T/C is 129 % of control under setting [1]; 145 % of control (dose: 12.5 mg/kg/injection, schedule: Q01DX009 (ip), vehicle: saline, evaluated on day 45); 129 % of control (dose: 12.5 mg/kg/injection, schedule: Q01DX009 (ip), vehicle: saline, evaluated on day 60). For the same compound, the survivor count under setting [2] was 10 of 10 (2×); the survivor count (dose: 50.0 mg/kg/injection, schedule: Q01DX009 (ip), vehicle: saline) is on record as 10 of 10; the survivor count (dose: 100.0 mg/kg/injection, schedule: Q01DX009 (ip), vehicle: saline) is reported as 7 of 10; the survivor count (dose: 150.0 mg/kg/injection, schedule: Q01DX009 (ip), vehicle: saline) is on record as 0 of 10.
Take `O=[N+]([O-])c1ccc(O)c(N=Cc2ccc(C=Nc3cc([N+](=O)[O-])ccc3O)cc2)c1`: the survivor count (dose: 300.0 mg/kg/injection, schedule: Q01DX009 (ip), vehicle: Klucel (hydroxypropylcellulose) (HPC)) is recorded as 10 of 10.
Turning to `OCCN1CCN(CCCN2c3ccccc3Sc3ccc(C(F)(F)F)cc32)CC1`, the survivor count was 9 of 10 (dose: 1.56 mg/kg/injection, schedule: Q01DX009 (ip), vehicle: saline); 10 of 10 (dose: 3.12 mg/kg/injection, schedule: Q01DX009 (ip), vehicle: saline); 9 of 10 under setting [1]; 5 of 10 (dose: 12.5 mg/kg/injection, schedule: Q01DX009 (ip), vehicle: saline); 4 of 10 under setting [2].
